The record followed here is patent US20220340905, “NUCLEIC ACID APTAMER SPECIFICALLY RECOGNIZING B-LACTOGLOBULIN AND USE THEREOF” (JIANGNAN UNIVERSITY, published 2022).

In data set [1] the test system is IgG. In words: binding assay. Particulars: specificity control, 50 ug/mL protein, 200 nM aptamer on magnetic beads; text states good specificity; purified native protein; label: 5'-FAM (fluorescence assay); single-stranded DNA.
Data set [2] relates to casein. In words: binding assay. The following applies: specificity control, 50 ug/mL protein, 200 nM aptamer on magnetic beads; text states good specificity; purified native protein; label: 5'-FAM (fluorescence assay); single-stranded DNA.

Construct, isoform or probe ends are uncertain for at least one entry. Negatives hold for the conditions tested.

Take “AGCAGCACAGAGGTCAGATGTTCGGCCTTTGCGTTAACGAACTTCTAGCTATGCGGCGTACCTATGCGTGCTACCGTGAA [Lg-18]”: the binding result in data set [1] and in data set [2] was “no binding” in each case.
